Test results: the supplement of paper PMC12823440, “Inhibitors supercharge kinase turnover through native proteolytic circuits” (Nature, 2025)
This is one part of the list. Hit calls seldom repeat between salt and free forms of one compound.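 Kinases, fused to nanoluciferase, were expressed in K562 cells; luminescence was measured every 4 h from 2 to 18 h as percent of control (DMSO = 100%, positive control = 0%). A time point is decreased if signal falls significantly (2 sigma). Hits were called by the authors by a rule that is not shown; the count of time points alone does not decide it.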

Chains of the proteins cited; added tags and fusions are not shown. Lines headed by an entry give the natural chain unless they say otherwise; changes in a name come on top.
UniProt P07333, whole entry: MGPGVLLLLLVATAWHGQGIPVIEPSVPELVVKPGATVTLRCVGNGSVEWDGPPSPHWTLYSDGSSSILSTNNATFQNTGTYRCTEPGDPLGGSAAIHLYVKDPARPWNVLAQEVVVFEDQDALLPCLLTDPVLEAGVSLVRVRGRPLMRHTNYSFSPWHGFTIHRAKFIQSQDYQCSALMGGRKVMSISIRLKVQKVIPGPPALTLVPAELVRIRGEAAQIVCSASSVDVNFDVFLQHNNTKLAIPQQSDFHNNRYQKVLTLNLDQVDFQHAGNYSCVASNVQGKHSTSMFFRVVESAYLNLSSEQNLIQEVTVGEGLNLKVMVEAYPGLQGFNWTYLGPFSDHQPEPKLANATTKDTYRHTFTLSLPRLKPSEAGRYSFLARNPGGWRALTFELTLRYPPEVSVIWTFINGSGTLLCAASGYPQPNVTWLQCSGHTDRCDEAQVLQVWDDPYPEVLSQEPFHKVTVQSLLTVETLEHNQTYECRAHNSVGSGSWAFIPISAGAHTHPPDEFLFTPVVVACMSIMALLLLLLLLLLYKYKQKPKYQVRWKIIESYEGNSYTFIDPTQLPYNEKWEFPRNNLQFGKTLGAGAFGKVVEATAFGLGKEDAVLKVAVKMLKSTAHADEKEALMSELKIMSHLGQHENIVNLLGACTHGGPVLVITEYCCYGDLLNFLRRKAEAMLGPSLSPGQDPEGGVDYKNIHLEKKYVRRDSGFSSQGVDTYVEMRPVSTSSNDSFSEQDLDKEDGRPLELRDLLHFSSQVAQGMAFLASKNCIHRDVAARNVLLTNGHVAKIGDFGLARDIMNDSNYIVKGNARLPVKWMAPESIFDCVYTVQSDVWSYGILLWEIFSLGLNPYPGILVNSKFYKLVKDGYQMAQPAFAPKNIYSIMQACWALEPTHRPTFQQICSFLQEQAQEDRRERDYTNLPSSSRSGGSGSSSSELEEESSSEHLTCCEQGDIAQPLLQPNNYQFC
UniProt O75460: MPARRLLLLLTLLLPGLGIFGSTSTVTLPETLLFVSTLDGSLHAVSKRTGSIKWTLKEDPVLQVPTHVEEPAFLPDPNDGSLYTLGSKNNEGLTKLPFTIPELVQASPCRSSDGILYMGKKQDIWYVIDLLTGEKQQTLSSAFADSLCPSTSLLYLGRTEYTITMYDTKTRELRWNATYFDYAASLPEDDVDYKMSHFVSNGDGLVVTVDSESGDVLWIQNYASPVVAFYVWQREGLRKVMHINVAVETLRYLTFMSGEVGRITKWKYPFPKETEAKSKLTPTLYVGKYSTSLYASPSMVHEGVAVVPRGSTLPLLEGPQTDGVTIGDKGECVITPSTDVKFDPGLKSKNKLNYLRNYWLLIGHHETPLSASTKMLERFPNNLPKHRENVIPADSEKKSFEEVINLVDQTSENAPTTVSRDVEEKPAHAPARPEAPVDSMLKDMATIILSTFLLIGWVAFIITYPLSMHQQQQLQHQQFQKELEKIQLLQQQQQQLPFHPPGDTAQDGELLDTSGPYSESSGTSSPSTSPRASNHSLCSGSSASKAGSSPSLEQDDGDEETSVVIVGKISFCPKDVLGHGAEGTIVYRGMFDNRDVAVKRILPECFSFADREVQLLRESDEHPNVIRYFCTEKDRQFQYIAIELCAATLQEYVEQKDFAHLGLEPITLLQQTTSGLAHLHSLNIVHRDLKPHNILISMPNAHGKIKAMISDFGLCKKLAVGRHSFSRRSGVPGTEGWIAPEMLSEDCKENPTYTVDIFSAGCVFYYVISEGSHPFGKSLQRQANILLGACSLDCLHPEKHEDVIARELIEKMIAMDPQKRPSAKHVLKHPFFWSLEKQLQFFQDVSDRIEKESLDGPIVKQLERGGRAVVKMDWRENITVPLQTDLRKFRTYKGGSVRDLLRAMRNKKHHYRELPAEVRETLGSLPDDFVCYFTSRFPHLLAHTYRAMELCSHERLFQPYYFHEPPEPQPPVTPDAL
UniProt Q6PHR2: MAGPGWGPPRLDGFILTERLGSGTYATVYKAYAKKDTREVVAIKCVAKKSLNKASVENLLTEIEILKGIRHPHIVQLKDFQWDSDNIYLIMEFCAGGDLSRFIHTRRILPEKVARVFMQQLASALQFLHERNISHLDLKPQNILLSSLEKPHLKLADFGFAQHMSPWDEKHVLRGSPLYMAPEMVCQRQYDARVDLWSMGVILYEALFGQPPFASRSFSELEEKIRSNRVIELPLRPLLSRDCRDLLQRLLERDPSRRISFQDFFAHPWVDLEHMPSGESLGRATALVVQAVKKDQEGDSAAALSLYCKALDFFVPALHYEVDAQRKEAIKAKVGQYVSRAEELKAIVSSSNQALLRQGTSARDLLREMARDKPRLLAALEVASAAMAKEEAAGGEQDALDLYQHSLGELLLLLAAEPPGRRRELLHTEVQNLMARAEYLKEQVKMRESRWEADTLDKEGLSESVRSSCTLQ
UniProt Q01974, whole entry: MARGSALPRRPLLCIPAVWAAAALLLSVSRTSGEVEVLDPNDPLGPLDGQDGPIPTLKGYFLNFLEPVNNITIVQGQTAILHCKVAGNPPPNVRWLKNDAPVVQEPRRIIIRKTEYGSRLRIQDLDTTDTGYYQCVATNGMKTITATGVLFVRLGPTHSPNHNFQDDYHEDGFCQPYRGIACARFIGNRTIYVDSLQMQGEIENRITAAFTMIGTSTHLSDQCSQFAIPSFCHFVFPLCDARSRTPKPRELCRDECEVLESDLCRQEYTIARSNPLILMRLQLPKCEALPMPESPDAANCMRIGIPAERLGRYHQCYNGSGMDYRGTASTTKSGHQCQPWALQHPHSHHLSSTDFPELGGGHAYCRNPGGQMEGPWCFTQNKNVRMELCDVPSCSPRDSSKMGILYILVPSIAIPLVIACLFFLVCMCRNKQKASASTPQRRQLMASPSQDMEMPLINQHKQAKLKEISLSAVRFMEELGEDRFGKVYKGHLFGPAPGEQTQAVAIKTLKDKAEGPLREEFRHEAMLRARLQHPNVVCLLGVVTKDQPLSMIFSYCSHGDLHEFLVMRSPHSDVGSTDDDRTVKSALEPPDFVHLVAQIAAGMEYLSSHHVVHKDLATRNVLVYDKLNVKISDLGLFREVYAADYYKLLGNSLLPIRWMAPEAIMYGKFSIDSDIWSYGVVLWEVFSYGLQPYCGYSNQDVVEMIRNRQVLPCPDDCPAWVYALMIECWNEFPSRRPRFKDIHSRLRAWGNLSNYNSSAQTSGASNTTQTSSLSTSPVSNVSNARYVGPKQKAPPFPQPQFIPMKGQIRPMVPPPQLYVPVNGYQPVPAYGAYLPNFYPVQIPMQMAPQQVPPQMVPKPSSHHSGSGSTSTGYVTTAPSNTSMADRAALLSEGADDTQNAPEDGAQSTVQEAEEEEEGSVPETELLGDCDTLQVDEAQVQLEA
UniProt P48729: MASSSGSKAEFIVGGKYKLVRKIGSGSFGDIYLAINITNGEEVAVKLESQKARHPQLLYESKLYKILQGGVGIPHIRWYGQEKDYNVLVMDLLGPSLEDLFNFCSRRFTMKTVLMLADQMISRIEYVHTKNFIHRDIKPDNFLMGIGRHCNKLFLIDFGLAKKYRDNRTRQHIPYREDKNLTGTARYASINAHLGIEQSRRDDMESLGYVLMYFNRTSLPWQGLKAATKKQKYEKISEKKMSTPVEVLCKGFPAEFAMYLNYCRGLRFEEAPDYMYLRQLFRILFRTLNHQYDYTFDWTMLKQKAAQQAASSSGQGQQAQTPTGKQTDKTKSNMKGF
UniProt Q15418, whole entry: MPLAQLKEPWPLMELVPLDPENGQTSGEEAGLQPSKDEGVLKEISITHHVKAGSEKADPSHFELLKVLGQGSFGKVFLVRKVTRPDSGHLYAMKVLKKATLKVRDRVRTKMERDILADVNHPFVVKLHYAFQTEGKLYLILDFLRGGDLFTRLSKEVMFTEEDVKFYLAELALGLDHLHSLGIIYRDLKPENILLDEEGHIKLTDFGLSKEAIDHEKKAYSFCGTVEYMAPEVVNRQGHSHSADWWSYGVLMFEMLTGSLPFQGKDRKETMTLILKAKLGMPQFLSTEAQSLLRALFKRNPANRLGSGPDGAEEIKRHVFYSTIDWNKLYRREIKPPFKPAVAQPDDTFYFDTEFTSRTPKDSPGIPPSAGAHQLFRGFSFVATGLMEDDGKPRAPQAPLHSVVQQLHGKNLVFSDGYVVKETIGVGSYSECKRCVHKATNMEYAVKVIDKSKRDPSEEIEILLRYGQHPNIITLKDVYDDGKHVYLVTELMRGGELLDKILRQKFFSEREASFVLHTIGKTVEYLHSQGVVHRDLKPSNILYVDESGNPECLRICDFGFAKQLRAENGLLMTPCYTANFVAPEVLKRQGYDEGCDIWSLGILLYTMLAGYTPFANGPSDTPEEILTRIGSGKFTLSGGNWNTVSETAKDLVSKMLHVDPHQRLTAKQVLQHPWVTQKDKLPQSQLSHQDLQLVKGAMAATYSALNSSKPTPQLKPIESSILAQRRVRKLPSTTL
UniProt Q9UQB9: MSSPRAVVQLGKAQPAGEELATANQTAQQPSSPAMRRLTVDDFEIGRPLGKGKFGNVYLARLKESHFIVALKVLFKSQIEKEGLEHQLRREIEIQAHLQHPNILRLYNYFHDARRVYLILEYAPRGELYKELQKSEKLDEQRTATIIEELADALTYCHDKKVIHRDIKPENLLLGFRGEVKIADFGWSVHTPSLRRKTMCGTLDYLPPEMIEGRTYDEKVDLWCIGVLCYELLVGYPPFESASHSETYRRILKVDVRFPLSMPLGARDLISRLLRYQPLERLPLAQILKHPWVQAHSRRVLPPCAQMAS
UniProt P15056, whole entry, looked up: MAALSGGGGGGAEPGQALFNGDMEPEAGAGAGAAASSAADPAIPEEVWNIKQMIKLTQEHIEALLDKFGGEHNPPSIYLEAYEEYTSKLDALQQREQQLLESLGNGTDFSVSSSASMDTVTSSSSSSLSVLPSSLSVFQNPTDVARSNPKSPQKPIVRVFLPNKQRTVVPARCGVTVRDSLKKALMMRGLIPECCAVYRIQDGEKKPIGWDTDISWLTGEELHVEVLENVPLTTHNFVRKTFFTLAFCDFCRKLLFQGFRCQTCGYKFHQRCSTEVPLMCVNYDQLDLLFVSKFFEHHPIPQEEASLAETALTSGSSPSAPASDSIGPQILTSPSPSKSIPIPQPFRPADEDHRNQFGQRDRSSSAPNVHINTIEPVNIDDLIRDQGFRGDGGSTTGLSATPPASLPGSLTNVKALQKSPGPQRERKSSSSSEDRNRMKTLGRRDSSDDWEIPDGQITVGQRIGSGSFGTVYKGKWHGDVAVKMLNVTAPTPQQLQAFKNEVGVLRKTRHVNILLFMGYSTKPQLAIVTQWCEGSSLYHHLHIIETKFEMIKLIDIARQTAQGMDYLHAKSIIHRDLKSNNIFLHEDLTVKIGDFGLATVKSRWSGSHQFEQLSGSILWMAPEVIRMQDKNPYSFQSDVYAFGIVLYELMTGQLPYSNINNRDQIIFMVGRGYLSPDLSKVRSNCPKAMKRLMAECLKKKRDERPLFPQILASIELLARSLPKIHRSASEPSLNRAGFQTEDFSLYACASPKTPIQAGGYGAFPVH
UniProt P07948: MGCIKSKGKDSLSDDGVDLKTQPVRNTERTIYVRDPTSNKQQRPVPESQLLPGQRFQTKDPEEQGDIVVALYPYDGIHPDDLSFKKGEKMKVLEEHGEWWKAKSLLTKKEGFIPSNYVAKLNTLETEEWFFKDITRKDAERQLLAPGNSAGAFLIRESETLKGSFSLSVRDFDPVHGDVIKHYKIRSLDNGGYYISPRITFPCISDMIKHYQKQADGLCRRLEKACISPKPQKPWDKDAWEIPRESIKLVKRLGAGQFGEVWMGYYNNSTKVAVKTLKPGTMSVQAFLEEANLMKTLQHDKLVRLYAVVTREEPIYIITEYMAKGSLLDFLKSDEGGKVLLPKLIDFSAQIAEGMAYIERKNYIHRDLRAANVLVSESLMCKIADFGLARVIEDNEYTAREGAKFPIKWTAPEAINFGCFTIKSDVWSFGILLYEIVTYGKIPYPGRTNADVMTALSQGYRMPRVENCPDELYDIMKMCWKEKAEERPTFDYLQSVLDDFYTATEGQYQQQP
UniProt P49137, whole entry, looked up: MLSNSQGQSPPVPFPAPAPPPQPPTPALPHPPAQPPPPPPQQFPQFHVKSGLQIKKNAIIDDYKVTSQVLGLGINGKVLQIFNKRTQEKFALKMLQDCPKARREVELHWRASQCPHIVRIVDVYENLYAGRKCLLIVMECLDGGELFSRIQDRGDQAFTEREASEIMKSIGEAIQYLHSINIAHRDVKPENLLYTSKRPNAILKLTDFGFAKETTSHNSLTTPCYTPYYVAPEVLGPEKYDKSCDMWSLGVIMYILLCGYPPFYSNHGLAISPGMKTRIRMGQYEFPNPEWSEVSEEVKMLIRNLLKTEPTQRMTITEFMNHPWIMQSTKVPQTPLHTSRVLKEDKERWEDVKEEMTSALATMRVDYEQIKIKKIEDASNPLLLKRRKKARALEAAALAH

Key:
Assay in all cases: number of time points (of 5) at which kinase-Nluc abundance scored as decreased, DMSO-normalised (count); higher = more persistent destabilization
[1] = compound: Cc1cc(Nc2ncc(Cl)c(Nc3ccccc3S(=O)(=O)C(C)C)n2)c(OC(C)C)cc1C1CCNCC1 [Ceritinib dihydrochloride]; settings: 2.5 µM; K562; 2-18 h
[2] = compound: Cc1cc(Nc2ncc(Cl)c(Nc3ccccc3S(=O)(=O)C(C)C)n2)c(OC(C)C)cc1C1CCNCC1 [Ceritinib]; settings: 2.5 µM; K562; 2-18 h
[3] = compound: Cc1ccc(NC(=O)c2ccc(CN3CCN(C)CC3)cc2)cc1Nc1nc(-c2cccnc2)cs1 [Masitinib (mesylate)]; settings: 2.5 µM; K562; 2-18 h
[4] = compound: Cc1ccc(NC(=O)c2ccc(CN3CCN(C)CC3)cc2)cc1Nc1nc(-c2cccnc2)cs1 [Masitinib]; settings: 2.5 µM; K562; 2-18 h
[5] = compound: Cc1cccc(-c2[nH]c(CNc3ccccc3F)nc2-c2ccc3ncnn3c2)n1 [Vactosertib (Hydrochloride)]; settings: 2.5 µM; K562; 2-18 h
[6] = compound: Cc1cccc(-c2[nH]c(CNc3ccccc3F)nc2-c2ccc3ncnn3c2)n1 [Vactosertib]; settings: 2.5 µM; K562; 2-18 h
[7] = compound: Cc1cccc(/C=N/Nc2cc(N3CCOCC3)nc(OCCc3ccccn3)n2)c1 [Apilimod (mesylate)]; settings: 10 µM; K562; 2-18 h
[8] = compound: Cc1cccc(/C=N/Nc2cc(N3CCOCC3)nc(OCCc3ccccn3)n2)c1 [Apilimod]; settings: 2.5 µM; K562; 2-18 h
[9] = compound: Cc1nc2ccc(-n3c(-c4nonc4N)nc4cnccc43)cc2[nH]1; settings: 10 µM; K562; 2-18 h
[10] = compound: Clc1ccc(C2(c3ccc(-c4cn[nH]c4)cc3)CCNCC2)cc1 [AT7867 (dihydrochloride)]; settings: 2.5 µM; K562; 2-18 h

Measured: number of time points

CSK (UniProt P41240)
0: all assays above

PRKCA (UniProt P17252)
1: [6]
0: all other assays above

AURKA (UniProt O14965)
1: [4] | [7]
0: all other assays above

EGFR_G719S_T790M (UniProt P00533)
0: all assays above

CSF1R (UniProt P07333)
2: [4]
3: [3]
0: all other assays above

INSRR (UniProt P14616)
2: [4]
3: [3]
0: all other assays above

FGFR1 (UniProt P11362)
0: all assays above

MAPK1 (UniProt P28482)
0: all assays above

FGFR2 (UniProt P21802)
3: [3]
2: [4]
0: all other assays above

DYRK1B (UniProt Q9Y463)
2: [3]
0: all other assays above

RIPK2 (UniProt O43353)
1: [3] | [4]
0: all other assays above

ERN1 (UniProt O75460)
0: all assays above

ULK3 (UniProt Q6PHR2)
1: [7]
2: [3] | [4]
0: all other assays above

ALK (UniProt Q9UM73)
1: [4]
0: all other assays above

PLK1 (UniProt P53350)
1: [4]
0: all other assays above

ROR2 (UniProt Q01974)
0: all assays above

NTRK3 (UniProt Q16288)
1: [4]
not listed: [5] | [6]
0: all other assays above

CSNK1A1 (UniProt P48729)
1: [3]
0: all other assays above

EGFR_L858R (UniProt P00533)
1: [3] | [4]
0: all other assays above

RPS6KA1 (UniProt Q15418)
0: all assays above

SRC (UniProt P12931)
0: all assays above

LCK (UniProt P06239)
0: all assays above

ZAK (UniProt Q9NYL2)
not listed: [7] | [8]
0: all other assays above

ERBB3 (UniProt P21860)
2: [3]
1: [4] | [7]
0: all other assays above

PBK (UniProt Q96KB5)
0: all assays above

RET (UniProt P07949)
1: [4]
0: all other assays above

MAPK4 (UniProt P31152)
0: all assays above

LIMK2 (UniProt P53671)
1: [3] | [4]
0: all other assays above

AURKC (UniProt Q9UQB9)
0: all assays above

PAK4 (UniProt O96013)
0: all assays above

RAF1 (UniProt P04049)
2: [4]
1: [3] | [7]
0: all other assays above

RIPK1 (UniProt Q13546)
1: [3] | [4]
0: all other assays above

BRAF (UniProt P15056)
1: [2]
0: all other assays above

BLK (UniProt P51451)
1: [8] | [10]
0: all other assays above

EGFR_T790M (UniProt P00533)
2: [2]
not listed: [6]
0: all other assays above

IRAK3 (UniProt Q9Y616)
0: all assays above

PIK4CA (UniProt P42356)
1: [4]
0: all other assays above

RET_M918T (clone: RET_mut) (UniProt P07949)
0: all assays above

JAK1 (UniProt P23458)
1: [3] | [4]
0: all other assays above

NTRK2 (UniProt Q16620)
1: [4]
0: all other assays above

LMTK2 (UniProt Q8IWU2)
0: all assays above

LYN (UniProt P07948)
0: all assays above

MAPKAPK2 (UniProt P49137)
0: all assays above

PDK1 (UniProt Q15118)
0: all assays above

FLT3 (UniProt P36888)
1: [4]
0: all other assays above

CDK5 (UniProt Q00535)
0: all assays above

EGFR_G719S (UniProt P00533)
1: [4]
0: all other assays above

DYRK2 (UniProt Q92630)
4: [3]
2: [8]
3: [4]
1: [1] | [7]
0: all other assays above
